Test in all cases: protein microarray (ProtoArray v5.0), streptavidin-Alexa Fluor 647
Holding throughout (conditions): 3'-biotin; 20 mM Tris (pH 7.5), 5 mM MgCl2, 100 mM KCl, 0.1% Tween-20, A/T-rich and random oligonucleotide blockers; temperature not stated; high values mean tight binding

The test system of assay [1] is PAGE2 (human).
Assay [2] deals with PAGE5 (human).
Assay [3] relates to PALM2 (human).
Assay [4] concerns PANK1 (human).
Assay [5] has as its system PANK4 (human).
For assay [6], the system named is PARVG (human).
In assay [7] the test system is PBEF1 (human).
Assay [8] concerns PBK (human).
Assay [9] has as its system PBLD (human).
For assay [10], the system named is PCDHB16 (human).

Where “and” joins values, the source holds several entries; their conditions need not be identical. Identical values can stand only once. The list shows a part of the results.

Results on one sequence are retold here after PMC5996148.

Regarding “GGGGACAGGGGTATGGGGAGGGG [G4-3 biotinylated (CtG)]”, the binding signal is -0.339 z-score in assay [1]; -0.334 z-score in assay [2]; -0.322 z-score in [3]; -0.33 z-score in assay [4]; -0.323 z-score in assay [5]; -0.341 z-score in [6]. Further, the binding signal in assay [7] is -0.31 z-score and -0.32 z-score; in assay [8], -0.334 z-score; in assay [9], -0.313 z-score; in assay [10], -0.326 z-score.
